Measured values taken from publication PMC9893415.
No constants are given. Whether binding was seen depends on the method and setting. Binding seen in cells or lysates may run through a third protein. Some binding calls cover weakened binding; strength is not graded here. Sequences can lack the tags named with a protein.

By UniProt entry, the sequences of proteins in these tests, tags left out.
UniProt Q9LUD7: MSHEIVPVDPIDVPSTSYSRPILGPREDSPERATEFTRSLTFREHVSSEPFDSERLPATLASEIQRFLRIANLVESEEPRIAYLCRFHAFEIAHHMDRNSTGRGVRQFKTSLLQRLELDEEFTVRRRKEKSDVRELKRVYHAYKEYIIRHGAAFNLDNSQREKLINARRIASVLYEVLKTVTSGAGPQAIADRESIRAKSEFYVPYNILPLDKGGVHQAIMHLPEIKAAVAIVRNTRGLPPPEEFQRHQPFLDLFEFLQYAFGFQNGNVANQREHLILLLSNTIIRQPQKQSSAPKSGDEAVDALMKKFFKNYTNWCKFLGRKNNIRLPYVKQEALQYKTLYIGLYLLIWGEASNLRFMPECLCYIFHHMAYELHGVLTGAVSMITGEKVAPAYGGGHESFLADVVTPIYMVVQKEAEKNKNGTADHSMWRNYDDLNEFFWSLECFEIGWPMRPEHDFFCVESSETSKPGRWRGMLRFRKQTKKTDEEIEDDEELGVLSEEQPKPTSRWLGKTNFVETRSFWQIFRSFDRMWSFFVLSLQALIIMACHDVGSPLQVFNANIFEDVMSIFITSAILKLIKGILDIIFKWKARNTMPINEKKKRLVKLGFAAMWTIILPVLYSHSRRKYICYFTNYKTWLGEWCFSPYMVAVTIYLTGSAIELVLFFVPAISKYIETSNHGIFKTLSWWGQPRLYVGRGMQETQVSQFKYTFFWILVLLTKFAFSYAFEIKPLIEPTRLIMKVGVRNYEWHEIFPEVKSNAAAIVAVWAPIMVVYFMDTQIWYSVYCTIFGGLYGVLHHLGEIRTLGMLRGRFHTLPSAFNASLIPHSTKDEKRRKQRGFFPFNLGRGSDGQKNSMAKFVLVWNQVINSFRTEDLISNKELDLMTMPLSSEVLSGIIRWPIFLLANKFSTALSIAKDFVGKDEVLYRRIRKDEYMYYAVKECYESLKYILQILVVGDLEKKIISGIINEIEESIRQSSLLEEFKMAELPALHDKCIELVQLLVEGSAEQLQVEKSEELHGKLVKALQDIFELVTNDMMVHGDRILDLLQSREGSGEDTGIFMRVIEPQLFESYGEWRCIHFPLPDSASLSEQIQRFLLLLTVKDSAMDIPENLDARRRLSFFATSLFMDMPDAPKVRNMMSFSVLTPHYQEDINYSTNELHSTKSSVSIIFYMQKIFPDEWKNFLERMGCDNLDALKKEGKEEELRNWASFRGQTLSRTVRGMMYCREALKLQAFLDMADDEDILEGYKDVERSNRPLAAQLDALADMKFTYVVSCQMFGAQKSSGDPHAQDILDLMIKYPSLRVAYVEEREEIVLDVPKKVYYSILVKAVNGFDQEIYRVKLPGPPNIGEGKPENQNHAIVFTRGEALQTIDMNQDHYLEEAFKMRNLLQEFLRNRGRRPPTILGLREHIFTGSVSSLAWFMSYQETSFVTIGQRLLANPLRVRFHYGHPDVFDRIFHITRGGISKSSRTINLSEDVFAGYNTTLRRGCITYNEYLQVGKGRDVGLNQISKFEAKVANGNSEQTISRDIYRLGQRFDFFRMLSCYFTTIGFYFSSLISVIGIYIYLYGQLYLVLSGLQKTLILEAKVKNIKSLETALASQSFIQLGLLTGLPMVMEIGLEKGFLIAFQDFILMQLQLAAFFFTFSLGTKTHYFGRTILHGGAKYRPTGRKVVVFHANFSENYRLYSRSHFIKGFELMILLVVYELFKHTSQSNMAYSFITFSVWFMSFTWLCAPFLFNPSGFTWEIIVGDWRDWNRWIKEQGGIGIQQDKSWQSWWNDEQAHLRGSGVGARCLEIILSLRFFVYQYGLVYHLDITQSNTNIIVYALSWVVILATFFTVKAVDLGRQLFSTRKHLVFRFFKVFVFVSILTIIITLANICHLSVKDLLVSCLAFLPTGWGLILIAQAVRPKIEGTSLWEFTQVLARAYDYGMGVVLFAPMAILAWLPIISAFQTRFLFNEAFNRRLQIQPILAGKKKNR
UniProt Q9SJM0: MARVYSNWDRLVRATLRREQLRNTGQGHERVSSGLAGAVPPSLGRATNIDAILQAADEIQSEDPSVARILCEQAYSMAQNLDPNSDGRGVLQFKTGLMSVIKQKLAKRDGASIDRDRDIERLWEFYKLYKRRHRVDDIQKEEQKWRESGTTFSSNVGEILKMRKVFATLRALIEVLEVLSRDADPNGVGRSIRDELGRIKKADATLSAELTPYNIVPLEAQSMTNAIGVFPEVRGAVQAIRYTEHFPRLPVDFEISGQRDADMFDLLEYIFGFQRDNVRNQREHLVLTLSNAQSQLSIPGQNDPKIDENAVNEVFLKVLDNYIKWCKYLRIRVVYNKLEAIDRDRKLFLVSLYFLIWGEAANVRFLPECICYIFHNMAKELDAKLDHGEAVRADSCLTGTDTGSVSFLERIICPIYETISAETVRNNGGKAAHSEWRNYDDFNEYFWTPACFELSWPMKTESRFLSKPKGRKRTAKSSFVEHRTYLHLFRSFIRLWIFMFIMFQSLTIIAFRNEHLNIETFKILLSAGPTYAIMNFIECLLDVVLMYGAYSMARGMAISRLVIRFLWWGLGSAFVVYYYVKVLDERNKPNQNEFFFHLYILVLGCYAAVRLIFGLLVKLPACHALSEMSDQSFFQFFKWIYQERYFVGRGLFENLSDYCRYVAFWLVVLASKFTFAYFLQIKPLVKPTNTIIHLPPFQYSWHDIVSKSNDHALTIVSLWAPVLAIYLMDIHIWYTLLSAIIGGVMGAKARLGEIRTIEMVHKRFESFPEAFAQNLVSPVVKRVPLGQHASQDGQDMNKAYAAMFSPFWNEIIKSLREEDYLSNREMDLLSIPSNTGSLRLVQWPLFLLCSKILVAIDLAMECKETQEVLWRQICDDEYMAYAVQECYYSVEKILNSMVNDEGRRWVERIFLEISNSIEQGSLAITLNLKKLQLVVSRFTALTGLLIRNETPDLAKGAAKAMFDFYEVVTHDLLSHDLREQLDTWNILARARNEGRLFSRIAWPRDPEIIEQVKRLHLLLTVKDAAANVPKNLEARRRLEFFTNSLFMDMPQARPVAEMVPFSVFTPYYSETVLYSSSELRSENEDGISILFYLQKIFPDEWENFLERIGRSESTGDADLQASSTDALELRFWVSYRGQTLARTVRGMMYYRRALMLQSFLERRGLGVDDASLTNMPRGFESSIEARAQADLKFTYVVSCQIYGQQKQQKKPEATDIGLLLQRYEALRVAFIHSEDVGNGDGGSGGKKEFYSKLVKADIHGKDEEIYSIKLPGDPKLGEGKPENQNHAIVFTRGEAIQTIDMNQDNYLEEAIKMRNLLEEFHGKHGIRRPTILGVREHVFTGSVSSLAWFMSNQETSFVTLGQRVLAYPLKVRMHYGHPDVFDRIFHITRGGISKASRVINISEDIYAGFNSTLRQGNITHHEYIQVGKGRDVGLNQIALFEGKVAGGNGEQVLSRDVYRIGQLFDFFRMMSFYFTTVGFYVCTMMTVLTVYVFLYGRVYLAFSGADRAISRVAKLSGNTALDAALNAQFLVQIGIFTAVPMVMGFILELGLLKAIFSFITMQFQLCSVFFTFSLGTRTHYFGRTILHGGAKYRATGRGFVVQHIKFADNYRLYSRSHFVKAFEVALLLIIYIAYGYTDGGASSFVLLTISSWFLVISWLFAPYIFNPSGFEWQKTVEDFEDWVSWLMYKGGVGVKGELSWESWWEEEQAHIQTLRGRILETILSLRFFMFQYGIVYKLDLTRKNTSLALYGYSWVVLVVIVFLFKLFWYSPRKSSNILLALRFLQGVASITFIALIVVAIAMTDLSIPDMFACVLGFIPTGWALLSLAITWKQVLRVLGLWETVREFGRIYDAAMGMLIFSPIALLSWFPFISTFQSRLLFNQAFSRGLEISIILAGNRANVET

T1: calmodulin-like protein 41 (CML41) fused to the C-terminal YFP fragment (Arabidopsis thaliana) (UniProt Q8L3R2)
T1 sequence: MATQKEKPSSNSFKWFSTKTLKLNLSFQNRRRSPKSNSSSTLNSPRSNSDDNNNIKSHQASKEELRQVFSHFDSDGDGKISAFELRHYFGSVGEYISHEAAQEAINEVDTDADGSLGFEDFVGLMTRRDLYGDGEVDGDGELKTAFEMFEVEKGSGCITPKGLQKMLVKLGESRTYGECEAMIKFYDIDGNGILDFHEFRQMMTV

T2: GFP-tagged calmodulin-like protein 41 (CML41) (Arabidopsis thaliana) (UniProt Q8L3R2)
T2 sequence: T1 sequence

B1: NOVEL CYS-RICH RECEPTOR KINASE (NCRK) fused to the N-terminal YFP fragment (receptor, UniProt Q8VYY5 24-565)
chain: GVSNYTCTCFSSGNRSDILESNCSTSCNCRPDRDQWVCLCPANGFPVIAIGGSNSSCFTSCNCSAGATKSSKKQYLSRKLVIVILLFCGVLISLAFLASMICYICRKDKFSGQTPSVSSDRESSWHSSANLINRKSSVSQSKISISSSVAGCFFQNASLFCVSKPETIHGAIFQFSYTELEQATNKFSSNSVIGHGGSSCVYRGQLKDGKTAAIKRLNTPKGDDTDTLFSTEVELLSRLHHYHVVPLIGYCSEFHGKHAERLLVFEYMSYGSLRDCLDGELGEKMTWNIRISVALGAARGLEYLHEAAAPRILHRDVKSTNILLDENWHAKITDLGMAKCLSSDGLQSGSSSPTTGLQGTFGYFAPEYAIAGCASQMSDVFSFGVVLLELITGRKPIQKPSNNKGEESLVIWAVPRLQDSKRVIEELPDPRLNGKFAEEEMQIMAYLAKECLLLDPESRPTMREVVQILSTITPDTSSRRRNFPINYLFQSNEKKKESKVGWSRGGSKSGQEEETVDLTEPRFESFCLPNVKPVLLEPSAHI
B2: NOVEL CYS-RICH RECEPTOR KINASE (NCRK), HA-tagged (receptor, UniProt Q8VYY5 24-565)
chain: B1 chain

Columns and labels:
[1] = target: T1, calmodulin-like protein 41 (CML41) fused to the C-terminal YFP fragment (Arabidopsis thaliana); test: split reporter; split-YFP fusions (YFP^n and YFP^c) co-expressed by Agrobacterium infiltration in N. benthamiana leaves; confocal microscopy after 2-3 days; also imaged 2 hours after spraying with eH2O2
[2] = target: GLUCAN SYNTHASE-LIKE 4 (GSL4) fused to the C-terminal YFP fragment (Arabidopsis thaliana) (UniProt Q9LUD7); test: as above
[3] = target: GFP-tagged GLUCAN SYNTHASE-LIKE 4 (GSL4) (Arabidopsis thaliana) (UniProt Q9LUD7); test: co-IP; NCRK (PDRLK1)-HA and GFP-tagged partners co-infiltrated in N. benthamiana leaves; lysate in IP buffer (100 mM Tris-HCl pH 7.5, 150 mM NaCl, 1 mM EDTA, 0.5% IGEPAL); anti-GFP antibody on protein A agarose, 2 hours at 4°C; immunoblotting
[4] = target: T2, GFP-tagged calmodulin-like protein 41 (CML41) (Arabidopsis thaliana); test: as above
[5] = target: GFP-tagged GSL8 (Arabidopsis thaliana) (UniProt Q9SJM0); test: as above

Binder | binding [1] | binding [2] | binding [3] | binding [4] | binding [5]
B1 | binds | binds | – | – | –
B2 | – | – | binds | binds | binds
